From article doi:10.1101/2025.01.26.634929
These are yes or no findings as the source states them, for the method shown. Binding seen in cells or lysates may run through a third protein. Some results given as binding are weak or reduced against the parent protein; the word gives no strength.

Amino acid sequences for entries named in this document (tags omitted).
UniProt P35637: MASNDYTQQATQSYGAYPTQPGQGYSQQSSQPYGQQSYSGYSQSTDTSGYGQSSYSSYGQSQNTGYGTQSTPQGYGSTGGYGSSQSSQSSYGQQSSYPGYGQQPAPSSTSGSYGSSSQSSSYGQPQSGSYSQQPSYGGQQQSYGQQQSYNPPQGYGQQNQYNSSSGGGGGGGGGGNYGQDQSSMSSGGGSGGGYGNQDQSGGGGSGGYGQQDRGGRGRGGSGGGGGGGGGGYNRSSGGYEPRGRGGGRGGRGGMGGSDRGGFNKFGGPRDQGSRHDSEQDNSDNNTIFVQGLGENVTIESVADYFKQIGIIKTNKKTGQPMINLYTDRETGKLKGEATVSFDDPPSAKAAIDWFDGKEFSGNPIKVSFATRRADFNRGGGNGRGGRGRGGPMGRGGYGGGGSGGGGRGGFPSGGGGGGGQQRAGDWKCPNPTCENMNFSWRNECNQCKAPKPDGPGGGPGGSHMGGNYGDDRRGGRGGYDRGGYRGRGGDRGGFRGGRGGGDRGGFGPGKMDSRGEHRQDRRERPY

B1: NONO (protein, UniProt Q15233 1-471)
chain: MQSNKTFNLEKQNHTPRKHHQHHHQQQHHQQQQQQPPPPPIPANGQQASSQNEGLTIDLKNFRKPGEKTFTQRSRLFVGNLPPDITEEEMRKLFEKYGKAGEVFIHKDKGFGFIRLETRTLAEIAKVELDNMPLRGKQLRVRFACHSASLTVRNLPQYVSNELLEEAFSVFGQVERAVVIVDDRGRPSGKGIVEFSGKPAARKALDRCSEGSFLLTTFPRPVTVEPMDQLDDEEGLPEKLVIKNQQFHKEREQPPRFAQPGSFEYEYAMRWKALIEMEKQQQDQVDRNIKEAREKLEMEMEAARHEHQVMLMRQDLMRRQEELRRMEELHNQEVQKRKQLELRQEEERRRREEEMRRQQEEMMRRQQEGFKGTFPDAREQEIRMGQMAMGGAMGINNRGAMPPAPVPAGTPAPPGPATMMPDGTLGLTPPTTERFGQAATMEGIGAIGGTPPAFNRAAPGAEFAPNKRRRY

biological target: AGO1 fused with C-terminal Flag- and HA-epitope tags (e-AGO1) (human) (UniProt Q9UL18); experiment: co-IP

| binding | Molecule |
| --- | --- |
| binds | FUS (from UniProt P35637 1-526) |
| binds | HNRNPK (from UniProt P61978 1-463) |
| binds | B1 |
